Measured values reported in PubChem BioAssay AID2685 (National Center for Advancing Translational Sciences (NCATS), 2010).
This is one part of the list. Further columns of the screen follow, without active or inactive calls. Compounds called inactive in the main read-out are mostly missing here. Words in brackets tell the shape of the fitted curve; partial curves, single points and poor fits give uncertain potencies.

Assay: qHTS Assay for Lipid Storage Modulators in Drosophila S3 Cells;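 for cell number change: cells counted by Cell Tracker Red CMTPX staining in the red channel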
Details: BODIPY lipid droplet fluorescence, 18-24 h; for cell number change: measured here: cell count max response, cells fed with added oleic acid
Summary of the method: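 Laser-scanning cytometry quantifies lipid droplet accumulation (500–530 nm total intensity; droplet/cell object ratio) in oleic acid-fed (400 uM added) Drosophila S3 cells treated with a concentration series. 20 uM Triacsin C defined 100% inhibition.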

[1] = measured here: lipid fluorescence (Fed channel) AC50, cells fed with added oleic acid
[2] = measured here: cell number channel AC50, cells fed with added oleic acid

| SMILES | cell number change | AC50 [1] | AC50 [2] |
| --- | --- | --- | --- |
| CCCNC(=O)c1cc2c(C(F)(F)F)nn(C)c2s1 | 2.76% |  |  |
| Fc1cccc(-c2n[nH]c(=S)n2-c2ccccc2)c1 | -9.49% |  |  |
| COc1ccc(NC(=S)NCCN2CCC(C)CC2)cc1Cl | -24.3% | 2.82 µM [falling, partial curve] |  |
| COc1ccc2c(c1)c(=O)oc1c(C)c(OC(C)C(=O)N[C@@H](Cc3c[nH]c4ccc(O)cc34)C(=O)O)ccc12 (some centres not stated) | 7.45% |  |  |
| CCNc1c(NS(=O)(=O)c2ccc(C3CCCCC3)cc2)c(=O)oc2ccccc12 |  | 1.64 µM [falling, partial curve] | 1.3 µM [falling, partial curve, poor fit] |
| COC(=O)C(Cc1ccccc1)NC(=O)CC(C)CC(=O)Nc1ccc(C)cc1 (configuration not stated) | -50.8% | 13 µM [falling, partial curve] | 13 µM [falling, partial curve, poor fit] |
| O=C(CN1C(=O)CCC1=O)Nc1nc(-c2ccc(Oc3ccccc3)cc2)cs1 | 3.58% | 32.6 µM [falling, single point] |  |
| Cc1ccc(N(CC(=O)NCCc2ccc(Cl)cc2)S(=O)(=O)c2c(C)noc2C)cc1 | -7.98% |  |  |
| Cc1cc(C)c(S(=O)(=O)N2CCCCC2CCNC(=O)C(=O)NCC2CCCO2)c(C)c1 (configuration not stated) | -14.5% | 3.26 µM [falling, partial curve] |  |
| CCC(=O)Nc1nc(-c2ccc3c(c2)CC(C)N3S(C)(=O)=O)cs1 (configuration not stated) | -46.5% | 18.4 µM [falling, partial curve, poor fit] | 20.6 µM [falling, single point] |
| Cc1ccc(N2CCN(S(=O)(=O)c3c(C)noc3C)CC2C)cc1 (configuration not stated) |  | 0.00517 µM [rising, full curve, poor fit] |  |
| CCOC(=O)Cc1nnc(Nc2ccc(C(=O)NC)cc2)c2ccccc12 | 24.8% | 32.6 µM [rising, single point] |  |
| Cc1ccc(Cl)cc1NS(=O)(=O)c1c(C)[nH]c(=O)[nH]c1=O |  | 25.9 µM [rising, single point] |  |
| CCN(c1ccccc1)S(=O)(=O)c1ccc(Cl)c(NC(=O)COC(=O)c2cccc(OC)c2O)c1 | -30.7% | 3.26 µM [rising, partial curve] | 4.11 µM [rising, partial curve] |
| CCN(C(=O)Nc1ccccc1)c1ccccc1 | -0.762% | 3.66 µM [falling, single point] | 0.0103 µM [falling, full curve, poor fit] |
| COc1c(O)cc2oc(-c3ccc(O)c(O)c3)cc(=O)c2c1O | 27.5% |  |  |
| COc1cccc(-c2csc(NC(=O)Oc3ccccc3)n2)c1 | 26.4% |  |  |
| COc1ccc(-c2nc3n(c(=O)c2C#N)CCCS3)cc1 |  | 0.082 µM [rising, full curve, poor fit] | 4.11 µM [rising, partial curve, poor fit] |
| CCc1ccccc1NC(=O)CSc1n[nH]c(-c2cccnc2)n1 | -9.52% |  |  |
| CC(C)OC(=O)C(C)(C)Oc1ccc(C(=O)c2ccc(Cl)cc2)cc1 | 33.7% | 23.1 µM [rising, partial curve] | 13 µM [rising, partial curve, poor fit] |
| O=C(NCCCN1CCN(c2ccccc2F)CC1)C1CCC(=O)N1C1CCCC1 (configuration not stated) | -0.538% |  |  |

| SMILES | cell number change | AC50 [1] | AC50 [2] |
| --- | --- | --- | --- |
| Cc1ccc(-n2nc3c(=O)n(CC(=O)c4ccc(F)cc4)nc(C)c3c2C)cc1 | 19.2% | 9.2 µM [rising, partial curve, poor fit] |  |
| Cn1c(=O)c2c(nc(Sc3ncnn3CC(=O)NC(C)(C)C)n2C)n(C)c1=O | -18.7% |  |  |
| O=C(Nc1ccc(S(=O)(=O)Nc2ncccn2)cc1)c1ccc(S(=O)(=O)N2CCCC2)cc1 | 15.6% |  |  |
| C[N+]1(C2CCC3CCCC2C3O)CCCC1 (configuration not stated) | -31.2% | 4.11 µM [falling, single point] |  |
| COc1ccc(/C=N/n2c(N)nc3ccccc32)cc1OC | -9.74% | 23.1 µM [rising, single point] | 1.16 µM [rising, partial curve] |
| CC(NC(=O)Cc1ccccc1)C1COc2ccccc2O1 (configuration not stated) | 131% |  | 20.6 µM [rising, partial curve] |
| O=[N+]([O-])c1ccccc1CNC(Cc1ccccc1)c1ccccc1 (configuration not stated) | 2.45% | 0.461 µM [falling, partial curve, poor fit] |  |
| CCCCCCCCCCOC(=O)Cn1c(COc2ccccc2)[n+](C)c2ccccc21 | -13.5% | 3.66 µM [falling, full curve] |  |
| O=C1c2ccccc2-c2c1nc1c([n+]2[O-])CCCC1 | 0.481% | 9.2 µM [rising, single point] |  |
| Cc1cccc(NC(=O)CSc2nc3[nH]ncc3c(=O)[nH]2)c1 | 0.663% |  |  |
| COc1ccc(-c2ccc3c(N)c(C(=O)c4ccc(OC)c(OC)c4)sc3n2)cc1 | -3.31% |  |  |
| CN=Cc1sc2ccccc2c1O | -17.9% |  |  |
| Cc1[nH]c2c(C)cccc2c(=O)c1Br |  | 0.291 µM [rising, partial curve, poor fit] | 0.259 µM [rising, partial curve, poor fit] |
| COCCNC(=O)c1c[nH]c2ccc(S(=O)(=O)Nc3ccccc3F)cc2c1=O | -9.72% | 6.51 µM [falling, full curve] | 6.51 µM [rising, single point] |
| COC(=O)Nc1ccc(S(=O)(=O)NCCCCCC(=O)O)cc1 | -10.4% | 29.1 µM [falling, single point] |  |
| COc1ccccc1OCCNC(=O)c1cc([N+](=O)[O-])cc([N+](=O)[O-])c1 | -9.6% |  |  |
| Cc1cccc(Cl)c1NC(=S)N1CCN(c2ccc([N+](=O)[O-])cn2)CC1 |  |  | 2.59 µM [rising, single point] |
| Cc1nc([N+](=O)[O-])cn1CCC#N | -7.05% | 1.3 µM [falling, full curve, poor fit] |  |
| O=[N+]([O-])c1cccc(CN2CCC(Cc3ccccc3)CC2)c1 | 30.1% |  | 25.9 µM [rising, single point] |
| COc1cc(C(=O)NCC(c2ccco2)N2CCCC2)ccc1OCc1ccccc1 (configuration not stated) | -1.87% | 29.1 µM [falling, single point] |  |
| CC(Sc1nc2scc(-c3ccccc3)c2c(=O)[nH]1)C(=O)NC(N)=O (configuration not stated) | -17.8% | 2.59 µM [falling, partial curve, poor fit] |  |

| SMILES | cell number change | AC50 [1] | AC50 [2] |
| --- | --- | --- | --- |
| CCOC(=O)C1(Cc2ccccc2)CCCN(C(=O)c2cnn(CC)c2)C1 (configuration not stated) | -11% |  |  |
| CSc1ccc(C#N)cc1NC(=O)c1ccccc1C | -31.9% |  | 0.116 µM [falling, full curve, poor fit] |
| COc1ccc(Nc2ccc3c(c2)=NC2(CCCCC2)[N+]=3[O-])cc1 | -5.5% | 2.31 µM [falling, single point] |  |
| Cc1ccc(NC(=O)CSc2ccccc2)cc1S(=O)(=O)N1CCCCC1 | -11.2% |  |  |
| COc1cccc(C(=O)Nc2ccc(S(=O)(=O)NCc3ccco3)cc2)c1 | -2.6% | 2.59 µM [rising, single point] |  |
| CC(C)NC(=O)c1ccc(-c2ccccc2C(F)(F)F)o1 | -2.9% | 0.411 µM [rising, single point] |  |
| CCCc1cc(=O)[nH]c(SCC(=O)N2CCN(c3ccccc3)CC2)n1 | -10.8% | 0.651 µM [falling, full curve, poor fit] |  |
| Cc1ccc(S(=O)(=O)N(Cc2ccc(C(F)(F)F)cc2)C(=O)N2CCN(C)CC2)cc1 | 150% |  | 29.1 µM [rising, single point] |
| CCOC(=O)c1sc(NC(=O)C(OC(C)=O)c2ccccc2)nc1C (configuration not stated) | 14% |  |  |
| Cc1ncc(CO)c2c1Oc1nc(-c3ccccc3F)nc(SCC(=O)N(C)c3ccccc3)c1C2 | -26.6% | 2.91 µM [falling, full curve] | 0.164 µM [falling, full curve, poor fit] |
| O=C(O)COn1c(-c2ccccc2)nc2ccc(Cl)cc21 | 10.8% | 2.91 µM [rising, single point] | 3.26 µM [rising, single point] |
| CC1=NN(c2ccccc2)C(=O)/C1=C\C=C1/N(C)c2ccccc2C1(C)C | -64.5% | 8.2 µM [falling, partial curve] | 10.3 µM [falling, partial curve] |
| COc1ccc(/C(O)=C2/C(=O)C(=O)N(Cc3cccnc3)C2c2ccncc2)cc1F (configuration not stated) | -73.2% | 6.51 µM [falling, single point] | 10.3 µM [falling, partial curve] |
| CN(Cc1ccc(F)cc1)C(=O)c1cccc(S(=O)(=O)N2CCN(c3ccc(F)cc3)CC2)c1 | 1.84% | 1.3 µM [rising, full curve, poor fit] |  |
| Nc1ncnc2nc(SCC(=O)Nc3ccccc3F)[nH]c12 | 10% |  |  |
| Cc1cc(Nc2ccccc2)n(CCOC(=O)COc2ccccc2)n1 | -25% | 0.00461 µM [rising, full curve, poor fit] | 0.0058 µM [falling, full curve, poor fit] |
| COC(=O)c1c(C(=O)OC)c2n(c1C)CCS2 | -10.8% |  |  |
| CCOc1ccc(N(CC(=O)NC2CCCC2)C(=O)CCC(=O)Nc2ccccn2)cc1 | -7.27% | 0.0092 µM [rising, full curve, poor fit] |  |
| CN(C)c1nn(C(=O)Nc2cccc(C(F)(F)F)c2)cc1-c1ccccc1 | 16.1% | 20.6 µM [rising, single point] |  |

Quoted at random: 3 entries already listed.

| SMILES | cell number change | AC50 [1] | AC50 [2] |
| --- | --- | --- | --- |
| COc1cccc(C(=O)Nc2ccc(S(=O)(=O)NCc3ccco3)cc2)c1 | -2.6% | 2.59 µM [rising, single point] |  |
| Cc1ccc(S(=O)(=O)N(Cc2ccc(C(F)(F)F)cc2)C(=O)N2CCN(C)CC2)cc1 | 150% |  | 29.1 µM [rising, single point] |
| CSc1ccc(C#N)cc1NC(=O)c1ccccc1C | -31.9% |  | 0.116 µM [falling, full curve, poor fit] |
